Some of the results follow. Construct or isoform of the protein are uncertain.
What follows are sequences tested against T1, ELF2 (UniProt Q15723) (assay: DAPPL (digital affinity profiling via proximity ligation, sequencing)). Conditions: 10 mM Tris-HCl pH 7.5, 50 mM NaCl, 1 mM DTT, 4% glycerol, room temperature, 30 min; GST-TFs on glutathione beads, 16-mer random dsDNA library, 0.1% …; high values mean tight binding; double strand, one strand shown; scale: fold enrichment (6-mer frequency, TF over GST control).
T1 sequence: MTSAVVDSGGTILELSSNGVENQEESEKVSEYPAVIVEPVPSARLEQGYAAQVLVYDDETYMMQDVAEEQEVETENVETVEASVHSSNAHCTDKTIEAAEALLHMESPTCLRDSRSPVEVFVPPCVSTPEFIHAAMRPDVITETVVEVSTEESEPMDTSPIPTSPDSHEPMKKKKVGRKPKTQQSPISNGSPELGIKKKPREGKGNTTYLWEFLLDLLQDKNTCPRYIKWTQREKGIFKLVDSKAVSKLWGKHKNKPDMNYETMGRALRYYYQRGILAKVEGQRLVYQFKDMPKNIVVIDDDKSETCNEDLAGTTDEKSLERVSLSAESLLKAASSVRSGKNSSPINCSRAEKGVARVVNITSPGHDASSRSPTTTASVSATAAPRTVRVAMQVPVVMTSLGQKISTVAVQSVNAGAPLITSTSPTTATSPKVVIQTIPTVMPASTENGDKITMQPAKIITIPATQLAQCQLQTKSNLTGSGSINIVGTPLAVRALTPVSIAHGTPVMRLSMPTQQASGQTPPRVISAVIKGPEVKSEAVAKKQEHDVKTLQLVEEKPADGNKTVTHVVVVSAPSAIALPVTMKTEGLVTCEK

Sequence	binding signal
ATTAAG	1.08
ACAAGA	0.962
AGTAAA	1.07
TGATTA	1.04
TTAAAT	1.11
TGATTT	1.33
CTGTTC	1.53
TAAATT	1.22
GGTCTC	2.16
TCAAAT	1.06
AAGATT	1.17
GCTTAC	1.12
AACTAT	1.37
TCGCAT	0.964
CGAGTA	0.771
CGTTTA	1.07
ATCCGG	3.37
CAACGA	1.03
GCAAAT	1.07
TCTCCT	1.44

Sequence	binding signal
CATAAT	1.02
AGCCTT	1.11
CTACGG	1.3
GCGATA	0.947
ACGTAC	1.12
TATGCA	1.21
GGCACT	1.28
CCGTTC	1.37
TCTATA	1.1
CAAGCA	1.17
TAGCAA	1.17
TTTAAT	1.29
ATACGC	1.11
TCAGCT	1.03
TTGAAA	1.1
TGATCG	1.05
AGATTA	0.997
ACTCGA	1.22
ATCTTA	1.06
TTTAAG	1.31

Another view of part of the listing above:
Sequence | binding signal
AGATTA | 0.997
ATCTTA | 1.06

Source: PMC7862700
